Measurements from article doi:10.1101/2025.02.21.639304.
No constants are given. Whether binding was seen depends on the method and setting. In cells and extracts the contact can be indirect. Binding calls can cover weak binding; strength is not graded here.

The chains behind the UniProt entries cited, without tags or fusion partners. Where a name states a change or a piece, a line headed by the entry shows the natural chain unless it says otherwise.
UniProt O60674: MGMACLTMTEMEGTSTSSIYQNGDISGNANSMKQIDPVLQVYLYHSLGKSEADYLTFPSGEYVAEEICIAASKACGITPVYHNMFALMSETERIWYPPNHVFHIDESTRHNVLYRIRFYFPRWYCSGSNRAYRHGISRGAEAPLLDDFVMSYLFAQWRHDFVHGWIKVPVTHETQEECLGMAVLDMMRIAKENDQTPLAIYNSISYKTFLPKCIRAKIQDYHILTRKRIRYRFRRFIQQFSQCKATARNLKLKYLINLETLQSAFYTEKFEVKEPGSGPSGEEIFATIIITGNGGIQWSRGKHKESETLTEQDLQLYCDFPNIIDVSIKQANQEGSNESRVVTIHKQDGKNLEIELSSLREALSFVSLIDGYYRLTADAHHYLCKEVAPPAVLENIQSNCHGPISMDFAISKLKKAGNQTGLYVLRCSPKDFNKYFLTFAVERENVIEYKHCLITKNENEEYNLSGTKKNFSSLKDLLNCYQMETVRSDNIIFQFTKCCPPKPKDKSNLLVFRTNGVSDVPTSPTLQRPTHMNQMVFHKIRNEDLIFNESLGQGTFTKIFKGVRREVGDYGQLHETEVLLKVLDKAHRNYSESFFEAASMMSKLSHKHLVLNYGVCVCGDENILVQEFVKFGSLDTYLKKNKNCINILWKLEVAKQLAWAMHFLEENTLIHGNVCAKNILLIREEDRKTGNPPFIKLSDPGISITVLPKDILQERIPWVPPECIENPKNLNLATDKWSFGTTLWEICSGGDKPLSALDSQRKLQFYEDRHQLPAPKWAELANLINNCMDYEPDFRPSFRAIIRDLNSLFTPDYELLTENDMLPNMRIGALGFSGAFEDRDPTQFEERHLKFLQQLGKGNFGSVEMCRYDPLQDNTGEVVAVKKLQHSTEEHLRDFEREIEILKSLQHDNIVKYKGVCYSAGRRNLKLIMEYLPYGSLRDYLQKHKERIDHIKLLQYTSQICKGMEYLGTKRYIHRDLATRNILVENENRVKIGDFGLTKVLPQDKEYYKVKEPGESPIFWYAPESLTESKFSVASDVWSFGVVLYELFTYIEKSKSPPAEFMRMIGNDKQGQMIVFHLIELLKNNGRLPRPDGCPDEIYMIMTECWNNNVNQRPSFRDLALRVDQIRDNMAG
UniProt P42224: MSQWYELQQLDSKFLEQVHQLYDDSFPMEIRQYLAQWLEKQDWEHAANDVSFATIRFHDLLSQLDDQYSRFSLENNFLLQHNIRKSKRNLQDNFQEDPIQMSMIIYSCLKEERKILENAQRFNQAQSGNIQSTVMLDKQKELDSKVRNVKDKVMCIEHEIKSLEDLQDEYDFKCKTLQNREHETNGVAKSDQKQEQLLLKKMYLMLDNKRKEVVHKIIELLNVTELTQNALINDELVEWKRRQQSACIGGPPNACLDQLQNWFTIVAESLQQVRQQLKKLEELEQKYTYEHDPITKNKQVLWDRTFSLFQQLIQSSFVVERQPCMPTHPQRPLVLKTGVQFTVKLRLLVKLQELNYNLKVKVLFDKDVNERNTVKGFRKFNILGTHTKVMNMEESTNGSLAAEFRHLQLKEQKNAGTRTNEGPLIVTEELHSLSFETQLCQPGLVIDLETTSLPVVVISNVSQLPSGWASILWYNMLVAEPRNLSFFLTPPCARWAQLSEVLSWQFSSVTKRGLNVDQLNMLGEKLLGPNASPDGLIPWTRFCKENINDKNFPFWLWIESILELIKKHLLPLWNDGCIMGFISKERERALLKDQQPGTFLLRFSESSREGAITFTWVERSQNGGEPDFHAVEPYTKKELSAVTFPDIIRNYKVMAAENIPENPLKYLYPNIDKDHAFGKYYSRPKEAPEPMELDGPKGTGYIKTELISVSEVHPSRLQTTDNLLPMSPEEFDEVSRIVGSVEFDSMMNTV

Target: JAK2 of SET2 cells (JAK2 V617F mutated cell line) (human (endogenous in SET2)) (UniProt O60674)
Assay: co-IP

## STAT1 (from UniProt P42224 1-750)
  binding: binds
